Reference: paper PMC7614022
No constants are given. Whether binding was seen depends on the method and setting. Binding seen in cells or lysates may run through a third protein. Binding calls can cover weak binding; strength is not graded here.

Molecular target: αvβ3 integrin (mouse (endogenous in TH2 cells))
Assay: co-IP; TH2 cell lysate (30 mM Tris pH 7.4, 120 mM NaCl, 2 mM KCl, 1% Triton-X-100, 2 mM EDTA) incubated with anti-αv (CD51) or anti-β3 (CD61) antibody overnight at 4°C; protein A/G dynabeads; western blot with anti-Thy1

binding: binds
B1: Thy1 (CD90) (protein, UniProt P01831 20-131)
chain: QKVTSLTACLVNQNLRLDCRHENNTKDNSIQHEFSLTREKRKHVLSGTLGIPEHTYRSRVTLSNQPYIKVLTLANFTTKDEGDYFCELQVSGANPMSSNKSISVYRDKLVKC
